Measured values taken from paper PMC7290719.
Where two headings read alike, the source gives them in different places. These are yes or no findings as the source states them, for the method shown. In cells and extracts the contact can be indirect. A yes stands for co-enrichment or nearness to the bait. Other partners may have been found.

The chains behind the UniProt entries cited, without tags or fusion partners.
UniProt Q9NSY1: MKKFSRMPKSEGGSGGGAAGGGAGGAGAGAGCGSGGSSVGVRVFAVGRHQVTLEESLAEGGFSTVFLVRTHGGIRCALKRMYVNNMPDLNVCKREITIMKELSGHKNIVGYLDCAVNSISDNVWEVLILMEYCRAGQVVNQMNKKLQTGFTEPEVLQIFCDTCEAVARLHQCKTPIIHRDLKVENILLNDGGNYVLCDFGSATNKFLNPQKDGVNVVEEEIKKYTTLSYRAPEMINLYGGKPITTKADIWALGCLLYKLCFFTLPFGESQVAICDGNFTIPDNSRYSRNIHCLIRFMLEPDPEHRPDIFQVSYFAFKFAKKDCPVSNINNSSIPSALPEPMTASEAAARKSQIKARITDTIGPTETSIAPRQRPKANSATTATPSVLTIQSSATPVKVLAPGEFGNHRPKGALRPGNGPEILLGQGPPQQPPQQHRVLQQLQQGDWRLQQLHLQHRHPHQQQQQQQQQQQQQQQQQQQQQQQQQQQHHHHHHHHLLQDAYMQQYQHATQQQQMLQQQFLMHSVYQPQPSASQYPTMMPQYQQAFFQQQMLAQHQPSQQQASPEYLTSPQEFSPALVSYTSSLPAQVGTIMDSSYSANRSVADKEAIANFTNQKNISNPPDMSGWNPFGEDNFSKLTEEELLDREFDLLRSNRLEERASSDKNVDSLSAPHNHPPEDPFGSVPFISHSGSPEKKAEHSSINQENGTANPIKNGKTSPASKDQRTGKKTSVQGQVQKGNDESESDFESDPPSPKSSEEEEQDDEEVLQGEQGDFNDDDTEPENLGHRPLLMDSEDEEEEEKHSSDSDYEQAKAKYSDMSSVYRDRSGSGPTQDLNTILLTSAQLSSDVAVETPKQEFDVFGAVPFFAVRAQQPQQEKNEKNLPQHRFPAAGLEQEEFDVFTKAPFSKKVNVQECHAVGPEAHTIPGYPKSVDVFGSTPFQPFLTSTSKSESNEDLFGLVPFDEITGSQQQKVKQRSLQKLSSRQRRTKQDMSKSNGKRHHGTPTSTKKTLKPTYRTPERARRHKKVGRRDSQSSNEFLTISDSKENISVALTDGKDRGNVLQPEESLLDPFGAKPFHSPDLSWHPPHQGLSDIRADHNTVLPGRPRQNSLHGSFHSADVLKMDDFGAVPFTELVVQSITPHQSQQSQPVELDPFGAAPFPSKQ
UniProt P78559: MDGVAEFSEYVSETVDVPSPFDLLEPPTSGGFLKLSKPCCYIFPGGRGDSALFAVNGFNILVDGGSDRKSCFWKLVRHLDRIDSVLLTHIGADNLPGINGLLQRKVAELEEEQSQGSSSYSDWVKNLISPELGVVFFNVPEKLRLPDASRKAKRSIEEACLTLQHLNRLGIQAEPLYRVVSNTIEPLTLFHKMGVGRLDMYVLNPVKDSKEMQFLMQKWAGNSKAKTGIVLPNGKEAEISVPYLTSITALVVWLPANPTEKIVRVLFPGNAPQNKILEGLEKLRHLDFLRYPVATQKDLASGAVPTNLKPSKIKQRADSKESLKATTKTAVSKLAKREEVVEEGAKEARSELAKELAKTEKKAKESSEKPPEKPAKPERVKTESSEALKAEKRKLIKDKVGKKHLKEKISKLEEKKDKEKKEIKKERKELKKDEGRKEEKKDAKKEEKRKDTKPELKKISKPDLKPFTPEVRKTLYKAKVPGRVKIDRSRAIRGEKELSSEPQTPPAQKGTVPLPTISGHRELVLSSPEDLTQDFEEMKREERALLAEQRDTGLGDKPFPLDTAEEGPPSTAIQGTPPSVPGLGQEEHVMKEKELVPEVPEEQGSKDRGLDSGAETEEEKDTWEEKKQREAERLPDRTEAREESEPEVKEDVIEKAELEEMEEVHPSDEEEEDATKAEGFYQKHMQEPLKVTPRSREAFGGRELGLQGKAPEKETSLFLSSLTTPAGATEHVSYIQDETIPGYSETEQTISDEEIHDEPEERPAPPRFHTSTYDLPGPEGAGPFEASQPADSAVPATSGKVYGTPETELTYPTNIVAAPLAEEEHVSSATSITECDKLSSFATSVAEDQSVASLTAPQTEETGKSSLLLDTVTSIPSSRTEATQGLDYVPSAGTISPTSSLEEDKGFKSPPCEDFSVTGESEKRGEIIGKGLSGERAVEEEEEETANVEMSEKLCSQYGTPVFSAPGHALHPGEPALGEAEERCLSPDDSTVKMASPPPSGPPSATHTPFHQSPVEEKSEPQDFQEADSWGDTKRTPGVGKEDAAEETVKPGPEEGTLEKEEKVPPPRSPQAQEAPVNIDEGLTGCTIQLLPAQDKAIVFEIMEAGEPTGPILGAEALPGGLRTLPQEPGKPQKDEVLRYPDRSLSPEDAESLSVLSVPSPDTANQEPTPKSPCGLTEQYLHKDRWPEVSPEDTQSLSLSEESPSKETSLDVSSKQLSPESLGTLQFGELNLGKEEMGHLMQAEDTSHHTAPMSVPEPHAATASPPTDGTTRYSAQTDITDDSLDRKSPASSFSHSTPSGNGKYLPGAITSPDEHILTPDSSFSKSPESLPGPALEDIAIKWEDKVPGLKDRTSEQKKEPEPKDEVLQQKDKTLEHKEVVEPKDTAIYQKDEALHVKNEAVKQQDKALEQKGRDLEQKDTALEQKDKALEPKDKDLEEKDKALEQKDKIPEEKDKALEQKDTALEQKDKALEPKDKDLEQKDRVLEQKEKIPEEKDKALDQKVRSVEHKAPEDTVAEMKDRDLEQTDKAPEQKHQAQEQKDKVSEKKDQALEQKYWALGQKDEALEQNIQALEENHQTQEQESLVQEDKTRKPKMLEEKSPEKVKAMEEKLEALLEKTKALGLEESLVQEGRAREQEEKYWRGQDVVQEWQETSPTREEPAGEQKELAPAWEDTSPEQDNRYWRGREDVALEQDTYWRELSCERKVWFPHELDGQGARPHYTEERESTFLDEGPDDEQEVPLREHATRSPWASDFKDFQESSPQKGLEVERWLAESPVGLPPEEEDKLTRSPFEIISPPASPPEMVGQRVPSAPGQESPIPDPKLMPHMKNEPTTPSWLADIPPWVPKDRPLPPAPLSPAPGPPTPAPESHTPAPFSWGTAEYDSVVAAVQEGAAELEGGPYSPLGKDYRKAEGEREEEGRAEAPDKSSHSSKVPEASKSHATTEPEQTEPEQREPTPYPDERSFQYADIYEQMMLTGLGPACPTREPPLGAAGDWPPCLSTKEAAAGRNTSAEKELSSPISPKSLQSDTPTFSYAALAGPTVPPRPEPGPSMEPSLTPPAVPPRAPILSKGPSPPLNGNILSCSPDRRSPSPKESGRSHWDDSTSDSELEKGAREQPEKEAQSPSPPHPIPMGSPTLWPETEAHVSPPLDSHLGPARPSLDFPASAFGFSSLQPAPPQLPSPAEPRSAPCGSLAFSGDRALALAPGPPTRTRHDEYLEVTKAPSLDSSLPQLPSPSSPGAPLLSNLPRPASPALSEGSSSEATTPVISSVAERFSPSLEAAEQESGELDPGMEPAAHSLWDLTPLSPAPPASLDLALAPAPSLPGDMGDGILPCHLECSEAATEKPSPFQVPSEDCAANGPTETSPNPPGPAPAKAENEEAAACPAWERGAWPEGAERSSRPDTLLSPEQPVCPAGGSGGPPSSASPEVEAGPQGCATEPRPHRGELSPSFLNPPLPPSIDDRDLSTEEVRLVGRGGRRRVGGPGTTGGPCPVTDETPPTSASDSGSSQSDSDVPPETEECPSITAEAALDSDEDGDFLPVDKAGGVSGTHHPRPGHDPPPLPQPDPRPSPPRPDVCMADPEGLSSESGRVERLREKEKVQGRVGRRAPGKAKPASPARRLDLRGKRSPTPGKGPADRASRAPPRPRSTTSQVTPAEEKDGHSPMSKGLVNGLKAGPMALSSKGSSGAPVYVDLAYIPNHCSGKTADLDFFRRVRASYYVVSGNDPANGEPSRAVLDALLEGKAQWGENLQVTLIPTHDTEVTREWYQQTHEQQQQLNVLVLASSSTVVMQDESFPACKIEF
UniProt P09874: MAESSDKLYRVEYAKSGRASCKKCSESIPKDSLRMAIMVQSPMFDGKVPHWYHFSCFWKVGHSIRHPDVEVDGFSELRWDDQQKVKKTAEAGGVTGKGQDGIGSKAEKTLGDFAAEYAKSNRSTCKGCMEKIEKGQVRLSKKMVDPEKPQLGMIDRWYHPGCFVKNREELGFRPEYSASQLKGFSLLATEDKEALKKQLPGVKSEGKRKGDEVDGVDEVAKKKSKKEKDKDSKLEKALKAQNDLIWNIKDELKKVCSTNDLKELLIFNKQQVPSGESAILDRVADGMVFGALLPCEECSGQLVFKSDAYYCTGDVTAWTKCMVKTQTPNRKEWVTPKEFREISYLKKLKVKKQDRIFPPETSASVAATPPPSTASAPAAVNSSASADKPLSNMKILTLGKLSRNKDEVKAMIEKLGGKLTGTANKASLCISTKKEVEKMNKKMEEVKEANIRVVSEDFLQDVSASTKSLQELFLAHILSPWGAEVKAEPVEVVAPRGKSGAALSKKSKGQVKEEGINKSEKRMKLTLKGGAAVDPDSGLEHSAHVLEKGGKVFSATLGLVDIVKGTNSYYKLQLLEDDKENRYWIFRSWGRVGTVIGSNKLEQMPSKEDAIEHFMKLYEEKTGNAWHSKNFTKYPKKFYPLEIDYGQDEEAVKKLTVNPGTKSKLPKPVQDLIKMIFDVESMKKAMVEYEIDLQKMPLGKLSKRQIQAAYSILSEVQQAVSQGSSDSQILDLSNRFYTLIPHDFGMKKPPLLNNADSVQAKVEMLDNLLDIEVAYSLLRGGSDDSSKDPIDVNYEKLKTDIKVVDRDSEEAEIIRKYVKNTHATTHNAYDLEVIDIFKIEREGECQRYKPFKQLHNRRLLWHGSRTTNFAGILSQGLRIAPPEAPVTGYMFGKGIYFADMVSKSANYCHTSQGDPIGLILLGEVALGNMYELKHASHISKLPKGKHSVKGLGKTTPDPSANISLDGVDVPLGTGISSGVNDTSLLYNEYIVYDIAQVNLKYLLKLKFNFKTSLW
UniProt P08670: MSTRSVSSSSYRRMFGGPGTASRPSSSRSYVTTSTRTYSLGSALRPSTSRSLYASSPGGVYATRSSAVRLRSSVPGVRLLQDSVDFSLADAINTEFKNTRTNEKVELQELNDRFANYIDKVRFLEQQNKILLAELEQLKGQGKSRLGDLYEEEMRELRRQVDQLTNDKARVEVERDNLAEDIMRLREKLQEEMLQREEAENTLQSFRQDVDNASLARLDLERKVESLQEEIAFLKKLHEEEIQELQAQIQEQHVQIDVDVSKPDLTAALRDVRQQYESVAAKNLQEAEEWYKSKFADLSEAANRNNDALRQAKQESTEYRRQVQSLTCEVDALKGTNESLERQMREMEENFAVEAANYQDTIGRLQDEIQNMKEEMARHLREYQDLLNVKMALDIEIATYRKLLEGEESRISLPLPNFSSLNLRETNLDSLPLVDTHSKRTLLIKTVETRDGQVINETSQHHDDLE

B1: beta subunit of the AP1 complex (protein, UniProt Q10567 1-949)
chain: MTDSKYFTTTKKGEIFELKAELNSDKKEKKKEAVKKVIASMTVGKDVSALFPDVVNCMQTDNLELKKLVYLYLMNYAKSQPDMAIMAVNTFVKDCEDPNPLIRALAVRTMGCIRVDKITEYLCEPLRKCLKDEDPYVRKTAAVCVAKLHDINAQLVEDQGFLDTLKDLISDSNPMVVANAVAALSEIAESHPSSNLLDLNPQSINKLLTALNECTEWGQIFILDCLANYMPKDDREAQSICERVTPRLSHANSAVVLSAVKVLMKFMEMLSKDLDYYGTLLKKLAPPLVTLLSAEPELQYVALRNINLIVQKRPEILKHEMKVFFVKYNDPIYVKLEKLDIMIRLASQANIAQVLAELKEYATEVDVDFVRKAVRAIGRCAIKVEQSAERCVSTLLDLIQTKVNYVVQEAIVVIKDIFRKYPNKYESVIATLCENLDSLDEPEARAAMIWIVGEYAERIDNADELLESFLEGFHDESTQVQLQLLTAIVKLFLKKPTETQELVQQVLSLATQDSDNPDLRDRGYIYWRLLSTDPVAAKEVVLAEKPLISEETDLIEPTLLDELICYIGTLASVYHKPPSAFVEGGRGVVHKSLPPRTASSESAESPETAPTGAPPGEQPDVIPAQGDLLGDLLNLDLGPPVSGPPLATSSVQMGAVDLLGGGLDSLMGDEPEGIGGTNFVAPPTAAVPANLGAPIGSGLSDLFDLTSGVGTLSGSYVAPKAVWLPAMKAKGLEISGTFTRQVGSISMDLQLTNKALQVMTDFAIQFNRNSFGLAPAAPLQVHAPLSPNQTVEISLPLSTVGSVMKMEPLNNLQVAVKNNIDVFYFSTLYPLHILFVEDGKMDRQMFLATWKDIPNENEAQFQIRDCPLNAEAASSKLQSSNIFTVAKRNVEGQDMLYQSLKLTNGIWVLAELRIQPGNPSCTDLELSLKCRAPEVSQHVYQAYETILKN

How the values were obtained:
[1] = target: T1, SHC adaptor protein 3 (SHC3) (human (endogenous in U-87 MG)) (UniProt Q92529); assay: affinity purification with mass spectrometry; anti-SHC3 monoclonal antibody covalently linked to magnetic beads; RIPA whole cell extracts of U-87 MG maintained under normal and stressed (glucose exhausted) conditions; LC-MS/MS; control antibody against tetanus toxin
T1 sequence: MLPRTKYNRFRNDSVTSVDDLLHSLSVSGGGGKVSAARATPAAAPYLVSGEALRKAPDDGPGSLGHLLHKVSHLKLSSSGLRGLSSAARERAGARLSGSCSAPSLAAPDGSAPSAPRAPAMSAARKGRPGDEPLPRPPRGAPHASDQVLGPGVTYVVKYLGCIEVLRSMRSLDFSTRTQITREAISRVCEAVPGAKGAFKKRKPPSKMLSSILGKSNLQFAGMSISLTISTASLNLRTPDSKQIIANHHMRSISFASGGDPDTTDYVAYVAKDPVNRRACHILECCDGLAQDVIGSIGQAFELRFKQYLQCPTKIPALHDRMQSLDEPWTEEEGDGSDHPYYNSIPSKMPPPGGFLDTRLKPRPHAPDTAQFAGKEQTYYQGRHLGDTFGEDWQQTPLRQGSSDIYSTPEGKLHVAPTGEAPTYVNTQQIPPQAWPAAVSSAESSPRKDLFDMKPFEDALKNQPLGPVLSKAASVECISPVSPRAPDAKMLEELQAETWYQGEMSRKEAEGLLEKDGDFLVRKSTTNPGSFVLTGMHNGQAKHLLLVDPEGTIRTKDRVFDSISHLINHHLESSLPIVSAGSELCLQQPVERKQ

[2] = target: T1, SHC adaptor protein 3 (SHC3) (human (endogenous in U-87 MG)); assay: as above; remark: listed apart in the source

Molecule	binding [1]	binding [2]
BMP-2-inducible protein kinase (BMP2K) (from UniProt Q9NSY1 1-1161)	binds	–
microtubule associated protein 1A (MAP1A) (from UniProt P78559 1-2803)	binds	–
poly ADP-ribose polymerase 1 (PARP1) (from UniProt P09874 1-1014)	binds	–
vimentin (from UniProt P08670 1-466)	binds	–
B1	–	binds
